Assay results as given in patent US20120014876A1.
No constants are given. Whether binding was seen depends on the method and setting. Some binding calls cover weakened binding; strength is not graded here.

Assays:
[1] = biological target: mouse Fzd-2 (mouse) (UniProt Q9JIP6); test: pre-incubation with UM207 (1.10^-8 M) abolished UM206-rhodamine staining of mouse kidney and gut sections
[2] = biological target: mouse Fzd-1 (mouse) (UniProt O70421); test: as above
[3] = biological target: mouse Fzd-2 (mouse) (UniProt Q9JIP6); test: competition with rhodamine-labeled UM206 on kidney and small intestine sections
[4] = biological target: mouse Fzd-1 (mouse) (UniProt O70421); test: as above

- binding [1]: binds
- binding [2]: binds
- binding [3]: binds
- binding [4]: binds
Binder: GIKECQYQFRHRRWNCSTVD (N-terminal acetyl (Ac-); C-terminal amide (-NH2)) [Peptide UM207]
